Laboratory results published in patent US7262169 (dated 2007).

Experiment: general procedure: solution-phase peptide synthesis; EDC hydrochloride with HOBt, HOAt or HOPO; N-ethylmorpholine
Settings: HCl salt (tetrapeptide); for final HPLC purity: 210 nm
[1] = late stage modification step, HPLC A % (210 nm)

Fm-Glutaryl-Hyp-Ala-Ser-Chg-Gln-Ser-Leu-O-benzyl
step yield (coupling step, run 1): 97.0%
step yield (coupling step, run 2): 100.0%
crude HPLC purity (coupling step, HPLC A % (210 nm), run 1): 96.5 A %
crude HPLC purity (coupling step, HPLC A % (210 nm), run 2): 98.0 A %

Fm-Glutaryl-Hyp-Ala-Ser-Chg-Gln-Ser-Leu-OH
step yield (late stage modification step, run 1): 85%
step yield (late stage modification step, run 2): 97.5%
crude HPLC purity (late stage modification step, HPLC A % (210 nm), run 1): 88.3 A %
crude HPLC purity (late stage modification step, HPLC A % (210 nm), run 2): 85.6 A %
final HPLC purity (purification step): 94.9 A %
step yield (purification step): 93.0% recovery

HCl.H-Chg-Gln-Ser-Leu-OBn
crude HPLC purity [1]: 83.5 A %
crude purity (method not given) [1]: 76%
step yield (late stage modification step, from the N-Boc.tetrapeptide-OBn): 61%
final HPLC purity (purification step, run 1): 95.7 A %
final HPLC purity (purification step, run 2): 97.5 A %
step yield (purification step, from the N-Boc.tetrapeptide-OBn): 83.1%

Boc-Chg-Gln-Ser-Leu-O-benzyl
step yield (coupling step): 93%
crude HPLC purity (coupling step, HPLC A % (210 nm)): 96.0 A %
